The target in this test is T1, GFP-FKBP-Rab25 (UniProt P57735).
T1 sequence: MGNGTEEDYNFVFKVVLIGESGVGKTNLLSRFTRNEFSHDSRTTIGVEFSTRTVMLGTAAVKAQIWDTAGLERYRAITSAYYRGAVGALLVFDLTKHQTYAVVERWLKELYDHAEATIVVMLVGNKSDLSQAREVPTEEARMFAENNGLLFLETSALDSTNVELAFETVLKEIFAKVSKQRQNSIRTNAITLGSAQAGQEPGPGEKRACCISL
Description: knock-sideways relocalisation; A2780 nucleofected with pMito-iRFP670-FRB and GFP-FKBP-Rab25 or GFP-FKBP; 200 nM rapamycin for 4 hours; fixed, stained for FMNL1; FMNL1 intensity in mitochondria against cell body.

No constants are given. Whether binding was seen depends on the method and setting. Binding calls can cover weak binding; strength is not graded here. Tags and fused reporters may be left off the sequences shown.

Consider “FMNL1 (formin-like protein 1) (from UniProt O95466-2)”, for which the binding result is “binds weakly”.

These data come from article PMC12227070.
